At least one structure is not confirmed: it was looked up by name or label, or the drawing left a doubt.
Test system: subcutaneous adipocytes
Assay: Lipid assay (AdipoRed staining of differentiated adipocytes)
Assay type: cell-based
Settings: combination with 10 ng/ml N-(4-amino-2-methylquinolin-6-yl)-2-((4-ethylphenoxy)methyl)benzamide; one week treatment
Protocol: The lipid assay is performed on subcutaneous adipocytes. Cell culture dishes are inoculated with preadipocytes, which undergo differentiation into adipocytes. This is followed by treatment with the active substance for one week, during which the cells synthesize lipids and store them in vesicles. The total amount of lipid as a function of active substance effects is determined at the end of the culture period. This is done by staining the cell monolayer with the lipophilic fluorescent dye AdipoRed, followed by quantification by fluorescence spectroscopy.

`CC1=CCC(O)(C(C)C)CC1` (stereo not shown) [Terpineol pure, Terpineol] was tested, and the “Assay in which the combination showed better activity than the corresponding active substance alone: Lipid” value was “Lipid”.
